Read-outs that look alike come from different tables or passages of the source. These are yes or no findings as the source states them, for the method shown. Binding seen in cells or lysates may run through a third protein. Here binding means that the protein was enriched with, or labelled near, the bait; the list need not be complete. One block for each molecule: values may come before it.
Key:
[1] = target: USP7 (mouse (endogenous in primary CD3+ T cells)) (UniProt Q6A4J8); assay: affinity purification with mass spectrometry; proteins bound to USP7 isolated with anti-USP7 antibody from primary carcinoma-infiltrating CD3+ T cells, then mass spectrometry
[2] = target: USP7 (mouse (endogenous in primary CD3+ T cells)) (UniProt Q6A4J8); assay: as above; remark: listed apart in the source

Protein sequences, listed by entry. Tags and fused reporters are not part of them.
UniProt Q6A4J8: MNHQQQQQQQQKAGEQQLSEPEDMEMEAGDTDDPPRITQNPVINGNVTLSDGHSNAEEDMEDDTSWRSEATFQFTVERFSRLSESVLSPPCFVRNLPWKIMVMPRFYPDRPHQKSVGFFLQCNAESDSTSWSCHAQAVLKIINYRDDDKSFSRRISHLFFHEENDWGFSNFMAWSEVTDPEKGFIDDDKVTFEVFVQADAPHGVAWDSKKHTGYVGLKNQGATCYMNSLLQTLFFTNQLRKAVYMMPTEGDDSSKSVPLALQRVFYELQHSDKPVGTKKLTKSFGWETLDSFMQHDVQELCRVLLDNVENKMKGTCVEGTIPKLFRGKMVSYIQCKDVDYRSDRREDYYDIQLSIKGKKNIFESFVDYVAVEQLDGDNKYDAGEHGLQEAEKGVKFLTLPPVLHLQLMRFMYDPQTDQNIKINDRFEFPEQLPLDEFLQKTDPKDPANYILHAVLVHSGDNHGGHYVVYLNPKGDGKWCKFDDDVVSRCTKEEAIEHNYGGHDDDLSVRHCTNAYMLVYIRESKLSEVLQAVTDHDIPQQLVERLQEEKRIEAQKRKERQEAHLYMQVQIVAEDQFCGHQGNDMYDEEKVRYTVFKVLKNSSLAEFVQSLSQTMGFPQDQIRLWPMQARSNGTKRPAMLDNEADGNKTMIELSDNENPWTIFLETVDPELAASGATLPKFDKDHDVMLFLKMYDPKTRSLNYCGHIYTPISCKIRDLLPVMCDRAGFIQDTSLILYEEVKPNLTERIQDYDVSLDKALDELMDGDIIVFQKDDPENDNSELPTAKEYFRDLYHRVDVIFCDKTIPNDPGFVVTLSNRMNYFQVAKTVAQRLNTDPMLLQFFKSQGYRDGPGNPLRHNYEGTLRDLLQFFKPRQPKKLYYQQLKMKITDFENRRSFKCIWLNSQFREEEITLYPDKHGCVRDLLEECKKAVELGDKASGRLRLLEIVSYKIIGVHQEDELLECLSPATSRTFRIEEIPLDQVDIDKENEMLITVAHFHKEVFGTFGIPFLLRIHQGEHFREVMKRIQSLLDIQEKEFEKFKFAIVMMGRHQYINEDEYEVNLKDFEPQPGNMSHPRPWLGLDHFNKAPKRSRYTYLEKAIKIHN
UniProt P31266: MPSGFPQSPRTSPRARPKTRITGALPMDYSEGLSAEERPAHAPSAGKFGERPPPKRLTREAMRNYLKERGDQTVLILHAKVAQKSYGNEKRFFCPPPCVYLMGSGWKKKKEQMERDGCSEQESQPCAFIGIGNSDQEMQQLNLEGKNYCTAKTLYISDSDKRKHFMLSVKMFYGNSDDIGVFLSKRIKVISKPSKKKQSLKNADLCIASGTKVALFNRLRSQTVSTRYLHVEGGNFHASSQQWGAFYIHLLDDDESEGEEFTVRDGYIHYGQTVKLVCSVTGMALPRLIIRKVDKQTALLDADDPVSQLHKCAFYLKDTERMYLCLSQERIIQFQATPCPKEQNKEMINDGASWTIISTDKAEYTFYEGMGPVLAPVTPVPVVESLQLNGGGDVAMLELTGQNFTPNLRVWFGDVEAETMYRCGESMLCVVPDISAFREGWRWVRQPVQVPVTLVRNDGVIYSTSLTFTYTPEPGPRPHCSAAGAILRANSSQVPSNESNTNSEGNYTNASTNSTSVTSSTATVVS

binding [1]: binds
Molecule: RBPJ (from UniProt P31266 1-526)

binding [2]: binds
B1: UFL1 (enzyme, UniProt Q8CCJ3 1-793)
chain: MADAWEEIRRLAADFQRAQFAESTQRLSERNCIEIVNKLISQKQLEVVHTLDGKEYITPAQISKEMRDELHVRGGRVNIVDLQQVINVDLTHIESRVSDIIKSEKHVQMVLGQLIDENYLDQLSEEVNDKLQESGQVTVSELCKAYDLPGDFLTQALTQRLGRIINGHLDLDNRGVIFTEAFVARHKARIRGLFSAITRPTPVNSLVSKYGFQEQLLYSVLEDLVSTGRLRGTVVGGRQDKAVFVPDIYSRTQSTWVDSFFRQNGYLEFDALSRLGIPDAVNYIKKRYKNTQLLFLKATCVGQGLVDQVEASVEEAISSGTWVDISPLLPSSLSVEDAAMLLQQVMRPFGKLASAIVFSDTVVVSEKFITDCTGLFSERMHQKAEKEMKNNPVHLITEEDLKQISILESVNTSKKDKKDERRKKATEGSGSVRGGGGGNAREYKIKKTKKKGRKDEDSDDESQSSHGGKKKPDITFMFQDEIEDCLRKHIQDAPEEFISELAEYLIKPLNKMYLEVVRSVFMSSTSASGTGRKRTIKDLQEEVSNLYNNIRLFEKGMKYFADDTQTALTKHLLKTVCTDITNLMFNFLASDFLMAVEEPAAITSDIRKKILSKLTEETKVALTKLHNSLNEKSIEDFLSCLDSATEACDIMVKKGDKKRERQILFQHRQALCEQLKVTEDPALILHLTAVLLFQLSTHSMLHAPGRCVPQIIAFLHSKIPEDQHTLLVKYQGLVVKQLVSQNKKTGQGEDPSSDELDKEQHDVTNATRKELQELSLSIKDLVLKSRKSSVTEE
